Patent publication US11040052B2, “Methods and pharmaceutical compositions for modulating autophagy in a subject in need thereof” (INSERM (INSTITUT NATIONAL DE LA SANTE ET DE LA RECHERCHE …, priority 2013, dated 2021)
At least one structure is not confirmed: it was looked up by name or label, or the drawing left a doubt.

Assays:
[1] = tested on: U2OS cells stably expressing GFP-LC3; assay: Autophagy in cultured cells: GFP-LC3 puncta formation and LC3 lipidation with or without bafilomycin A1; assay type: cell-based, human
Description: U2OS, HeLa or H4 cells stably expressing GFP-LC3 were seeded in 96-well imaging plates (BD Falcon, Sparks, USA) 24 h before stimulation. Cells were treated with the indicated agents for 4 h. […] Images were analyzed for the presence of GFP-LC3 puncta in the cytoplasm by means of the BD Attovision software (BD Imaging Systems). Cell surfaces were segmented and divided into cytoplasmic and nuclear regions according to manufacturer standard proceedings. RB 2×2 and Marr-Hildreth algorithms were used to recognize cytoplasmic GFP-LC3 positive dots. Statistical analyses were implemented on the R software (http://www.r-project.org/). For quantitative analyses of protein acetylation, cell surfaces were segmented into cytoplasm and nuclei regions, and staining intensity of each individual cell was measured for statistical analysis.
Membranes were then sliced in different parts according to the molecular weight of the protein of interest to allow simultaneous detection of different antigens within the same experiment. […]
For immunoblotting, protein extracts obtained by cellular lysis via RIPA buffer were run on 4-12% Bis-Tris acrylamide (Invitrogen) and electrotransferred to […] PVDF membranes (Biorad, USA). […] Quantification was performed by densitometry by means of Image J software.
U2OS and H4 cells stably expressing GFP-LC3 were seeded in 96-well or 384-well imaging plates (BD Falcon, Sparks, USA). […] Images were analyzed for the detection of GFP-LC3 puncta in the cytoplasm by means of the BD Attovision software (BD Imaging Systems. Cellular regions of interest, cytoplasm and nucleus, were defined and segmented according to standard proceedings. RB 2×2 and Marr-Hildreth algorithms were employed to allow the detection of GFP LC3 puncta. Statistical analyses were conducted using the R and Prism softwares (http://www.r-project.org/). For quantitative analyses of protein acetylation, cell surfaces were segmented intocytoplasmic and nucleic regions, and staining intensity of each individual cell was measured for statistical analysis.

MCA205 tumor = assay: Growth of transplantable tumors with chemotherapy; assay type: in vivo, mice; details: for tumor growth, combined with MTX: immunocompetent wild type mice, agent given before and with mitoxanthrone
Description: C57BL/6 mice (Charles River Laboratory, Lentilly, France) were bred and maintained according to both the FELASA and the Animal Experimental Ethics Committee Guidelines (Val de Marne, France). Mice were housed in a temperature-controlled environment with 12 h light/dark cycles and received food and water ad libitum. For HC-related experiments, mice were injected intraperitoneally with a single 100 mg/kg dose and 6 h later were sacrificed and tissues were immediately frozen in liquid nitrogen. For DCA- and DMKG-related experiments, mice were subjected to 24 h starvation and injected intraperitoneally each 8 h with a 100 mg/kg of either DCA or DMKG solution prepared in PBS. After 24 h of starvation, mice were sacrificed and tissues were immediately frozen in liquid nitrogen after extraction and homogenized two cycles for 20 s at 5,500 rpm using Precellys 24 tissue homogenator (Bertin Technologies, Montigny-le-Bretonneux, France) in a 20 mM Tris buffer (pH 7.4) containing 150 mM NaCl, 1% Triton X-100, 10 mM EDTA and Complete® protease inhibitor cocktail (Roche Applied Science). Tissue extracts were then centrifuged at 12,000 g at 4° C. and supernatants were collected. Protein concentration in the supernatants was evaluated by the bicinchoninic acid technique (BCA protein assay kit, Pierce Biotechnology, Rockford, Ill.). For hydroxycitrate-related weight-loss experiments, autophagy-deficient Atg4b^−/− mice were used. Atg4b^−/− mice have been previously described (Mariño et al., 2010). For HC-, spermidine-, and resveratrol-related experiments (tumour growth) mice were intraperitoneally injected with respectively 100 mg/kg, 50 mg/kg and 100 mg/kg doses at day 8 and day 9. At day 9, mice were intraperitoneally injected with 2 mg/kg single dose of Mitoxanthrone. For starvation related experiment (tumour growth) mice were treated as previously described (Fabrizio et. al., 2010).
Six weeks old female C57BL/6, Balb/c and nude athymic mice (Harlan Laboratory, Gannat, France) were bred and maintained according to both the FELASA and the Animal Experimental Inserm Ethics Committee Guidelines (project: 2012-69). Mice were housed in a temperature-controlled environment with 12 h light/dark cycles and received food and water ad libitum. For tumor growth experiments, procedures adopted are described as follows: 3×10^5 tumor cells were subcutaneously inoculated; when tumors became palpable (day −1 before chemotherapy), mice were first intraperitoneally injected with 100 mg/kg Potassium Hydroxycitrate, 10 mg/kg Acetylsalicylic Acid, 30 mg/kg SB204990, 30 mg/kg c646, 5 mg/kg Rapamycin, 25 mg/kg Resveratrol, 50 mg/kg Spermidine. At day 0, mice were intraperitoneally injected with the abovementioned compounds and with 5.17 mg/Kg Mitoxanthrone or 5 mg/kg Oxaliplatin. Tumor size was measured every two days. For starvation experiments, mice underwent 48 hour fasting followed by intreperitoneal injection of chemotherapeutics. For autophagy induction study, 6 hours after CRMs administration, mice were sacrificed and tissues were snap-frozen in liquid nitrogen after extraction and homogenized two cycles for 20 s at 5,500 rpm using Precellys 24 tissue homogenator (Bertin Technologies, Montigny-le-Bretonneux, France) in a 20 mM Tris buffer (pH 7.4) containing 150 mM NaCl, 1% Triton X-100, 10 mM EDTA and Complete® protease inhibitor cocktail (Roche Applied Science, Penzberg, Germany). Tissue extracts were then centrifuged at 12,000 g at 4° C. and supernatants were collected. Protein concentration in the supernatants was evaluated by the bicinchoninic acid technique (BCA protein assay kit, Pierce Biotechnology, Rockford, US.

Row | Structure (SMILES) | starvation-induced autophagy (GFP-LC3 puncta, LC3 lipidation, autophagic flux) ([1]; nutrient-depleted (starved) cells in vitro) | re-induction of autophagy upon AcCoA increasing treatments [1] | tumor growth, combined with MTX (MCA205 tumor) | tumor growth, combined with MTX (MCA205 tumor; listed as Rapamycin) | tumor growth, combined with MTX, immunodeficient mice (MCA205 tumor; nu/nu (nude athymic) mice)
1 | CCCC(=O)O [butyrate] | inhibited autophagic flux | – | – | – | –
2 | CO[C@H]1C[C@@H]2CC[C@@H](C)[C@@](O)(O2)C(=O)C(=O)N2CCCC[C@H]2C(=O)O[C@H]([C@H](C)C[C@@H]2CC[C@@H](O)[C@H](OC)C2)CC(=O)[C@H](C)/C=C(\C)[C@@H](O)[C@@H](OC)C(=O)[C@H](C)C[C@H](C)/C=C/C=C/C=C/1C [rapamycin] | – | failed to re-induce autophagy | enhanced the therapeutic effects of anthracyclines | can enhance chemotherapy efficacy | failed
